Results are given in words; binding and its absence hold for the method and conditions named. In cells and extracts the contact can be indirect. Some results given as binding are weak or reduced against the parent protein; the word gives no strength. For some assays here: Where a sequence is shown, tags or fusion partners need not be part of it.
T1: Endogenous methylcrotonoyl-CoA carboxylase 1 (MCCC1) (human (endogenous in A549)) (UniProt Q96RQ3)
T1 sequence: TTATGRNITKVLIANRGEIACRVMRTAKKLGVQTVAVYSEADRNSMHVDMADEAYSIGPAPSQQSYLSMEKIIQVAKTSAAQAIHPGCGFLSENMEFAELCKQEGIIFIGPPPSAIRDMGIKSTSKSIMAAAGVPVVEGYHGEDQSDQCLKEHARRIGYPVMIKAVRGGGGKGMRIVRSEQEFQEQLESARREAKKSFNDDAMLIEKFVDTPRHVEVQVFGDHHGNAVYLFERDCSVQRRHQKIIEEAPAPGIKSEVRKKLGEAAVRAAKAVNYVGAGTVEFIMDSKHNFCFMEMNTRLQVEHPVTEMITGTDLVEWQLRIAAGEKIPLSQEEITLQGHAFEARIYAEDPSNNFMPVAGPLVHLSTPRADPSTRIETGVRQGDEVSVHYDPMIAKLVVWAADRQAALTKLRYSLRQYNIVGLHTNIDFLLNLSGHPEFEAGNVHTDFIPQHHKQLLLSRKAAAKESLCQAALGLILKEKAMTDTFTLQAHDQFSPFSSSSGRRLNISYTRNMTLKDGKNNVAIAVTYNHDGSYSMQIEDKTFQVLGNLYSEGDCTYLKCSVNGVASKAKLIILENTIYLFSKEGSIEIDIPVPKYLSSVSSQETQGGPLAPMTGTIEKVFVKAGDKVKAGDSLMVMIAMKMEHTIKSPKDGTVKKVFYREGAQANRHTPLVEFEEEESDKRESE

Amino acid sequences for entries named in this document (tags omitted).
UniProt Q7Z434: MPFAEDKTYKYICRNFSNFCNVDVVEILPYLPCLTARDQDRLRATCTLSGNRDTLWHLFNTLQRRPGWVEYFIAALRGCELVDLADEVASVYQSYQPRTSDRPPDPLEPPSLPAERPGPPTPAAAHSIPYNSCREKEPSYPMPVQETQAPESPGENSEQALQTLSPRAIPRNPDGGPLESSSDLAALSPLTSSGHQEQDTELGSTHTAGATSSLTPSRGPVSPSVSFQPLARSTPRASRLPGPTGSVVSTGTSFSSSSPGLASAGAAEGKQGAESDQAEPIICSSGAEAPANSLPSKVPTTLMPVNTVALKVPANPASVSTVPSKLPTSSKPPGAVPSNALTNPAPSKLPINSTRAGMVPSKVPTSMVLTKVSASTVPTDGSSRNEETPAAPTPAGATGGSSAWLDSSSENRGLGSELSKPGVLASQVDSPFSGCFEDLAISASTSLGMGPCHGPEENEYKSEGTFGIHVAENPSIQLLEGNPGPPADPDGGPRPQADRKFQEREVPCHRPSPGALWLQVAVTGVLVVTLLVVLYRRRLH
UniProt Q9Y6K9: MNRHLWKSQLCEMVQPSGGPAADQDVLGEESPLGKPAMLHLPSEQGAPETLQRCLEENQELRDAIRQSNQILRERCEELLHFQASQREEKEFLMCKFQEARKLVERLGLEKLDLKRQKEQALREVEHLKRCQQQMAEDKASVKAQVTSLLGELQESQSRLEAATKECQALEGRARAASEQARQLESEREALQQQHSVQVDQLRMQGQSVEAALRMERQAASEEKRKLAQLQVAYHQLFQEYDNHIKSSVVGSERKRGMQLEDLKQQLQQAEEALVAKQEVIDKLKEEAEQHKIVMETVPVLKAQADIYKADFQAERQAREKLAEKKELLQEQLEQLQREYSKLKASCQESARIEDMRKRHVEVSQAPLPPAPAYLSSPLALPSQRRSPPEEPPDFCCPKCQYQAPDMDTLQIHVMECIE

T2: HA-tagged methylcrotonoyl-CoA carboxylase 1 (MCCC1) (human) (UniProt Q96RQ3)
T2 sequence: T1 sequence

B1: FLAG-tagged TRADD (tumor necrosis factor receptor type 1-associated death domain protein) (protein, UniProt Q15628 1-312)
chain: MAAGQNGHEEWVGSAYLFVESSLDKVVLSDAYAHPQQKVAVYRALQAALAESGGSPDVLQMLKIHRSDPQLIVQLRFCGRQPCGRFLRAYREGALRAALQRSLAAALAQHSVPLQLELRAGAERLDALLADEERCLSCILAQQPDRLRDEELAELEDALRNLKCGSGARGGDGEVASAPLQPPVPSLSEVKPPPPPPPAQTFLFQGQPVVNRPLSLKDQQTFARSVGLKWRKVGRSLQRGCRALRDPALDSLAYEYEREGLYEQAFQLLRRFVQAEGRRATLQRLVEALEENELTSLAEDLLGLTDPNGGLA
B2: HA-tagged methylcrotonoyl-CoA carboxylase 1 (MCCC1) (protein, UniProt Q96RQ3 42-725)
chain: T1 sequence

Legend:
[1] = target: T1, Endogenous methylcrotonoyl-CoA carboxylase 1 (MCCC1) (human (endogenous in A549)); assay: co-IP; endogenous proteins; A549 cells infected with SeV for 12 h or left uninfected; whole-cell lysate; precipitation with anti-MCCC1 or anti-TRAF6 antibody or control IgG on protein G PLUS-Agarose; immunoblot
[2] = target: T2, HA-tagged methylcrotonoyl-CoA carboxylase 1 (MCCC1) (human); assay: co-IP; HEK293T cells co-transfected with HA- and FLAG-tagged expression vectors for 48 h; whole-cell lysate (0.01% EDTA, 0.1% Triton X-100); precipitation with anti-HA or anti-FLAG antibody on protein G PLUS-Agarose; immunoblot
[3] = target: FLAG-tagged mitochondrial antiviral signaling protein (MAVS) (UniProt Q7Z434); assay: as above

| Molecule | binding [2] | other results |
| --- | --- | --- |
| Endogenous mitochondrial antiviral signaling protein (MAVS) (from UniProt Q7Z434 1-540) | – | binding [1]: binds |
| FLAG-tagged NEMO (IKKγ) (from UniProt Q9Y6K9 1-419) | no binding | – |
| FLAG-tagged mitochondrial antiviral signaling protein (MAVS) (from UniProt Q7Z434 1-540) | binds | – |
| B1 | binds | – |
| B2 | – | binding [3]: binds |

Source: publication PMC5024325
